Data on one compound can be found in patent US10800792B2, “Inhibitors of Bruton's tyrosine kinase and method of their use” (JANSSEN PHARMACEUTICA NV, priority 2015, dated 2020).

Sequences of proteins named here, by UniProt entry; tags and fusion partners are left off. Residues count along the entry.
UniProt Q06187, 389-659 limits assumed: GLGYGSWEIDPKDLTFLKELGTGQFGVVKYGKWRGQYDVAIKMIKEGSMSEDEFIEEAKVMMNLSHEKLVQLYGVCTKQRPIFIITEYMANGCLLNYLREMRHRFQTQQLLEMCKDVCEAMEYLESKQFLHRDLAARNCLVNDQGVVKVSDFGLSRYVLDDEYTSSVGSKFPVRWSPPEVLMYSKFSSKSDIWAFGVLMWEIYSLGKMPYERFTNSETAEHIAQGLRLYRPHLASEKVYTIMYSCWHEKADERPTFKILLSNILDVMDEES

SMILES strings stand for the structures. Structures were worked out from names or drawings and are uncertain.

In this assay the target is unphosphorylated-BTK kinase domain (UP-BTK), GST-tagged human BTK (389-659aa) (Homo sapiens (Human), UniProt Q06187). The assay can be described thus: BTK kinase Lanthascreen binding assay. As to conditions: Lanthascreen tracer competition, 60 minutes incubation; pIC50 = negative log of the IC50 in molar. For orientation: Time-resolved FRET reads energy transfer from a long-lived donor to a nearby acceptor.

Take `C=CC(=O)N1CCC[C@@H](NC(=O)c2sc3nccc4c3c2NC(=O)N4c2ccnc(-c3ccccc3)c2C)C1`: the “BTK_I_binding pIC50” value is recorded as less than 6.
